PubChem BioAssay AID504764 – Drosophila RNAi Screening Center, 2011

Purpose: 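Knock-downs that raise or lower a Notch target reporter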 (primary screen)
System: Drosophila Kc167 cells
Knock-down reagent: long dsRNA against Drosophila genes
Timing: about 5 days (4 days dsRNA, then 24 h after transfection)
Challenge: transfection of constitutively active membrane-tethered Notch lacking the extracellular domain, read 24 h later
Measured: 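Firefly luciferase from an E(spl)m3 reporter with active Notch, plus control-promoter and uninduced reporter wells for normalisation; unnormalised counts, duplicate wells a and b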
Reading the numbers: induced reporter light, run 1, well a and induced reporter light, run 1, well b: higher = more light from the Notch target reporter with active Notch; control promoter light, run 1, well a and control promoter light, run 1, well b: higher = more light from the viral control promoter (cell number, transfection, viability); uninduced reporter light, run 1, well a: higher = more light from the Notch target reporter without active Notch
Call rule: 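Wells with low control signal or poorly matching duplicates excluded; duplicates averaged; per source plate, z beyond ±2 for induced/control log2 ratio or beyond ±1.8 for induced/uninduced marks a hit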
Meaning of the calls: active = modifier hit (raised or lowered Notch signal); inactive = not a hit
The screen tested about 22,000 reagents; below is an unselected part of those with a known target gene and a result. Of all reagents, 403 (1.9%) were called active. 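Unnormalised raw counts per well; ratio z-scores behind the hit calls and whether each hit raises or lowers signal are not deposited.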 Names joined by + are all predicted targets of the reagent. No sequences are given here. Not stated in the record: the amount of reagent.

| Gene | DRSC id | induced reporter light, run 1, well a | induced reporter light, run 1, well b | control promoter light, run 1, well a | control promoter light, run 1, well b | uninduced reporter light, run 1, well a | activity call |
| --- | --- | --- | --- | --- | --- | --- | --- |
| Dlip3 | DRSC07401 | 32955 | 28805 | 32315 | 17265 | 3275 | inactive |
| Ldsdh1 | DRSC18219 | 1.45e5 | 1.49e5 | 3.76e5 | 3.34e5 | 11345 | inactive |
| Dbp45A | DRSC07395 | 1.16e5 | 1.52e5 | 1.42e5 | 1.24e5 | 12642 | inactive |
| CG31639 | DRSC00910 | 1.21e5 | 1.25e5 | 1.58e5 | 1.42e5 | 7790 | inactive |
| Buffy | DRSC05957 | 1.16e5 | 1.22e5 | 1.49e5 | 1.36e5 | 10220 | inactive |
| Sec71 | DRSC01893 | 1.20e5 | 1.26e5 | 92825 | 1.35e5 | 10938 | inactive |
| Wdr82 | DRSC02595 | 1.04e5 | 1.30e5 | 84930 | 1.14e5 | 7478 | inactive |
| CG15296 | DRSC17983 | 1.33e5 | 1.48e5 | 2.31e5 | 2.33e5 | 9520 | inactive |
| CG31446 | DRSC13111 | 1.06e5 | 92510 | 1.47e5 | 1.29e5 | 7960 | inactive |
| Phf5a | DRSC03261 | 1.75e5 | 1.88e5 | 2.45e5 | 1.81e5 | 8440 | inactive |
| CG45067 | DRSC08414 | 71115 | 59420 | 1.18e5 | 1.08e5 | 3220 | inactive |
| CG2604 | DRSC12313 | 1.11e5 | 1.01e5 | 96790 | 1.03e5 | 7288 | inactive |
| Nrt | DRSC11237 | 1.51e5 | 1.67e5 | 86160 | 1.02e5 | 11840 | inactive |
| U4-U6-60K | DRSC10624 | 1.18e5 | 1.08e5 | 60975 | 61215 | 6390 | inactive |

A portion from the list above, as a working copy:
| Gene | DRSC id | induced reporter light, run 1, well a | induced reporter light, run 1, well b | control promoter light, run 1, well a | control promoter light, run 1, well b | uninduced reporter light, run 1, well a | activity call |
| --- | --- | --- | --- | --- | --- | --- | --- |
| CG31639 | DRSC00910 | 1.21e5 | 1.25e5 | 1.58e5 | 1.42e5 | 7790 | inactive |
| Buffy | DRSC05957 | 1.16e5 | 1.22e5 | 1.49e5 | 1.36e5 | 10220 | inactive |
| Sec71 | DRSC01893 | 1.20e5 | 1.26e5 | 92825 | 1.35e5 | 10938 | inactive |
| Wdr82 | DRSC02595 | 1.04e5 | 1.30e5 | 84930 | 1.14e5 | 7478 | inactive |

The list goes on.
| Gene | DRSC id | induced reporter light, run 1, well a | induced reporter light, run 1, well b | control promoter light, run 1, well a | control promoter light, run 1, well b | uninduced reporter light, run 1, well a | activity call |
| --- | --- | --- | --- | --- | --- | --- | --- |
| Kcmf1 | DRSC14459 | 85340 | 78445 | 56545 | 45325 | 6080 | inactive |
| l(3)62Be (retired record) | DRSC08231 | 82580 | 94140 | 1.89e5 | 1.75e5 | 7470 | inactive |
| Sxl + CG14425 (retired record) | DRSC18721 | 1.87e5 | 1.85e5 | 1.85e5 | 2.06e5 | 15090 | inactive |
| Sxl + CG14425 (retired record) | DRSC18722 | 79695 | 77855 | 83500 | 80350 | 5170 | active |
| Dgat2 | DRSC06803 | 1.74e5 | 1.79e5 | 1.64e5 | 1.46e5 | 14950 | inactive |
| uzip | DRSC04722 | 95520 | 95295 | 85590 | 85590 | 6610 | inactive |
| AspRS | DRSC05914 | 65535 | 64090 | 65890 | 56400 | 5090 | inactive |
| CG9021 | DRSC03128 | 1.60e5 | 2.05e5 | 1.81e5 | 2.01e5 | 14365 | inactive |
| Cdk12 | DRSC11836 | 47485 | 73610 | 30415 | 35245 | 4650 | inactive |
| CG12236 | DRSC17830 | 6275 | 6928 | 9405 | 8160 | 5190 | inactive |
| CG12236 | DRSC17831 | 1.08e5 | 92460 | 1.22e5 | 1.47e5 | 5690 | inactive |
| Polr2A | DRSC20280 | 31915 | 32645 | 33500 | 41950 | 2155 | inactive |
| Ptp52F | DRSC06717 | 1.19e5 | 88480 | 1.33e5 | 1.29e5 | 10675 | inactive |
| CG14829 | DRSC10199 | 3.44e5 | 2.61e5 | 4.18e5 | 2.68e5 | 19300 | inactive |
| Ubc84D | DRSC12610 | 82155 | 88935 | 73960 | 57835 | 6580 | inactive |
| EcR | DRSC04906 | 1.33e5 | 1.18e5 | 1.33e5 | 1.24e5 | 10215 | inactive |
| EcR | DRSC04910 | 1.98e5 | 2.51e5 | 1.70e5 | 2.12e5 | 15400 | inactive |
| Ude | DRSC15324 | 1.96e5 | 1.90e5 | 2.72e5 | 2.41e5 | 12485 | inactive |
| CR34254 | DRSC09562 | 1.93e5 | 1.97e5 | 2.76e5 | 2.56e5 | 15335 | inactive |
| CG42266 | DRSC21957 | – | – | – | – | – | active |
